Measured values as given in patent publication US20140030274A1.
No constants are given. Whether binding was seen depends on the method and setting. Some binding calls cover weakened binding; strength is not graded here. For some of these results: Where a sequence is shown, tags or fusion partners need not be part of it. Values belong to the binder of their own block, whether it stands above or below them.

Tests used:
Aβ(M1-42) (human) = assay: gel filtration on Superdex75 and SDS PAGE of fractions, 0 and 2 h incubation
[1] = molecular target: proSP-C BRICHOS (recombinant human, His59 to Ile197 of proSP-C, Examples 4-8) (human) (UniProt P11686); assay: gel filtration on Superdex75, self-association of proSP-C BRICHOS
[2] = molecular target: T1, …; assay: HDX-MS, 30 µM proSP-C BRICHOS and 40 µM peptide
T1 sequence (peptide): KKVVVVVKK

[3] = molecular target: T2, …; assay: HDX-MS, 30 µM proSP-C BRICHOS and 40 µM peptide; remark: listed apart in the source
T2 sequence (peptide): KKVVVVVVVKK

binding (Aβ(M1-42) (human)): binds | binding [1]: binds
B1: proSP-C BRICHOS (recombinant human, His59 to Ile197 of proSP-C, Examples 4-8) (protein)
chain: HMSQKHTEMVLEMSIGAPEAQQRLALSEHLVTTATFSIGSTGLVVYDYQQLLIAYKPAPGTCCYIMKIAPESIPSLEALNRKVHNFQMECSLQAKPAVPTSKLGQAEGRDAGSAPSGGDPAFLGMAVNTLCGEVPLYYI

binding [2]: binds | binding [3]: binds
B2: proSP-C BRICHOS (as used beside CTC in the HDX study of Example 2) (protein)
chain: TTATFSIGSTGLVVYDYQQLLIAYKPAPGTCCYIMKIAPESIPSLEALNRKVHNFQMECSLQAKPAVPTSKLGQAEGRDAGSAPSGGDPAFLGMAVNTLCGEVPLYYI
